The list shows a part of the results. Small differences around the control level are noise.

Amino acid sequences for entries named in this document (tags omitted). A change or cut given only in a name is not applied to a line headed by its entry.
UniProt Q8NHM5: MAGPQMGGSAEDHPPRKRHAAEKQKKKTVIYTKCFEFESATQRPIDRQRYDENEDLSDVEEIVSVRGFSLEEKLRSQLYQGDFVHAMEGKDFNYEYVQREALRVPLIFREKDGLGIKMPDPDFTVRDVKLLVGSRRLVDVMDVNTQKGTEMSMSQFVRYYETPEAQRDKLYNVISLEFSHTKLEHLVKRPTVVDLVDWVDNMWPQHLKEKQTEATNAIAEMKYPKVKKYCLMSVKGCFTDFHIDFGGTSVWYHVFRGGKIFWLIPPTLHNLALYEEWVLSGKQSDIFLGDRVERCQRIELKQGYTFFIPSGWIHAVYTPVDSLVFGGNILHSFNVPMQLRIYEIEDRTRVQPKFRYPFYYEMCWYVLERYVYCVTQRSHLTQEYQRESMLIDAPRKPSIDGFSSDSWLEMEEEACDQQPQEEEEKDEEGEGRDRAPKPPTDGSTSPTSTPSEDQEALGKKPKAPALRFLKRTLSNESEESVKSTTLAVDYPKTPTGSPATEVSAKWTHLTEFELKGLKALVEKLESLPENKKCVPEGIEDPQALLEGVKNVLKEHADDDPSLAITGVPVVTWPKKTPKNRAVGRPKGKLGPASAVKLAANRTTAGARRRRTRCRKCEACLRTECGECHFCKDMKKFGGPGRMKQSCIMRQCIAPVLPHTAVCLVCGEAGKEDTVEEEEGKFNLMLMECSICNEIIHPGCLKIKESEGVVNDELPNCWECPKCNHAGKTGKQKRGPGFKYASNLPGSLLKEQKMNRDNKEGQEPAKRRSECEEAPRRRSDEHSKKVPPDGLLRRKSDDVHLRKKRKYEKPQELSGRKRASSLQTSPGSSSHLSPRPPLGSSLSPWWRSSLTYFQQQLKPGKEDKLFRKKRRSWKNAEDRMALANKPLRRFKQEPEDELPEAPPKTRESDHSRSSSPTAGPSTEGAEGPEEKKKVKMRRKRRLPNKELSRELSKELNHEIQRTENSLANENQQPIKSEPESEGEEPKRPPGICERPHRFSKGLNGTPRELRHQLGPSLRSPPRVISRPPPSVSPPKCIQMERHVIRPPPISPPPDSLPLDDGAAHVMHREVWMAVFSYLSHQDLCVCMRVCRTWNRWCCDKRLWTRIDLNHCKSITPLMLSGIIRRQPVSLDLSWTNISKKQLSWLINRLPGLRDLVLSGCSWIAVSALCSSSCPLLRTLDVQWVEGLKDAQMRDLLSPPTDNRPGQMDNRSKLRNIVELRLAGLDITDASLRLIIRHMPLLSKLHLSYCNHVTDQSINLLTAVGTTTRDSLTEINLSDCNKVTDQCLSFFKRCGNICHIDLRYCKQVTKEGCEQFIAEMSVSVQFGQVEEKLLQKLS
UniProt Q8NB25: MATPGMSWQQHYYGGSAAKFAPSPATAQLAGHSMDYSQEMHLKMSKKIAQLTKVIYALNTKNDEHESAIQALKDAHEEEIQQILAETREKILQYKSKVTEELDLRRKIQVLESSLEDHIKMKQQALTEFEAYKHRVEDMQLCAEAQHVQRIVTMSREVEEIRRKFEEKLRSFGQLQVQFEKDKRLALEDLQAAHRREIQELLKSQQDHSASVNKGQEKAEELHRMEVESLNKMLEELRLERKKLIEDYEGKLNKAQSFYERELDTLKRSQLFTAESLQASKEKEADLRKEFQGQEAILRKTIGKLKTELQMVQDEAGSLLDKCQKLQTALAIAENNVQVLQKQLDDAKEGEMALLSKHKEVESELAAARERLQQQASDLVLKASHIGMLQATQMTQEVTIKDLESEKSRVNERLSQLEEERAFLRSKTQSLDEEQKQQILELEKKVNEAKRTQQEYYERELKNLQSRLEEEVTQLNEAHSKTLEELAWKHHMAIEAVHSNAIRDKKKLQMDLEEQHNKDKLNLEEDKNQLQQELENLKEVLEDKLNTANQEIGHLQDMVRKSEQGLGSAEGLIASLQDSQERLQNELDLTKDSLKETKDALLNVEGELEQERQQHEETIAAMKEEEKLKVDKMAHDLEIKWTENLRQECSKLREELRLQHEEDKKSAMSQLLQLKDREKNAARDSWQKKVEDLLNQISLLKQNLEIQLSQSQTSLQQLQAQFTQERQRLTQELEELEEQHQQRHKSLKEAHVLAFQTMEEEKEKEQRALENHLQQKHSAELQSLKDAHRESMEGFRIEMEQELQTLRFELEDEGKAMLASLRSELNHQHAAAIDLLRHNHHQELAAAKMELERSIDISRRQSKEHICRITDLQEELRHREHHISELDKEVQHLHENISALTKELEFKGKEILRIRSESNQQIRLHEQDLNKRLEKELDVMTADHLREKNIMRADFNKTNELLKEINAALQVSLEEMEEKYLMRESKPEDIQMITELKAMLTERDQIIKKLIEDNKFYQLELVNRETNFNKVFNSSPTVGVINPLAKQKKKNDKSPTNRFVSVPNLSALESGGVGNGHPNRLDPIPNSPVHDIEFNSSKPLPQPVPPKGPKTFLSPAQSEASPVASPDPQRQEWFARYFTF
UniProt Q8N8Z8: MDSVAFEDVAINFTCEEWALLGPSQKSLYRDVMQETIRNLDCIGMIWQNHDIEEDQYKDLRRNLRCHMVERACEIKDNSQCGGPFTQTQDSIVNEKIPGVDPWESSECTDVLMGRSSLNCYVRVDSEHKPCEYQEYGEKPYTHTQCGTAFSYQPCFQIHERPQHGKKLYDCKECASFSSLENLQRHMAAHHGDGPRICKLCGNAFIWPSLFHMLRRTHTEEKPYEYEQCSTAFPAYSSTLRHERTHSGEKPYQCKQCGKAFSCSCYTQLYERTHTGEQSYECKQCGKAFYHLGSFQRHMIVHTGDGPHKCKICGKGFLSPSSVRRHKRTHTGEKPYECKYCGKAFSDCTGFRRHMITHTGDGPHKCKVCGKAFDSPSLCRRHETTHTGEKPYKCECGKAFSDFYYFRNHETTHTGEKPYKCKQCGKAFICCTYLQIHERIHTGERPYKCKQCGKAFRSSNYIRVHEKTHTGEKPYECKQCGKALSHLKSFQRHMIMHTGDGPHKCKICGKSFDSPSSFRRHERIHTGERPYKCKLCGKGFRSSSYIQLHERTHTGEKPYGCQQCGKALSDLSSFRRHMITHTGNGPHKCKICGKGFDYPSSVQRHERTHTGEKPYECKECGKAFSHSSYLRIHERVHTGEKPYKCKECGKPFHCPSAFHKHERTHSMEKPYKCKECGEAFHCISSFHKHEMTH
UniProt Q8N8R5: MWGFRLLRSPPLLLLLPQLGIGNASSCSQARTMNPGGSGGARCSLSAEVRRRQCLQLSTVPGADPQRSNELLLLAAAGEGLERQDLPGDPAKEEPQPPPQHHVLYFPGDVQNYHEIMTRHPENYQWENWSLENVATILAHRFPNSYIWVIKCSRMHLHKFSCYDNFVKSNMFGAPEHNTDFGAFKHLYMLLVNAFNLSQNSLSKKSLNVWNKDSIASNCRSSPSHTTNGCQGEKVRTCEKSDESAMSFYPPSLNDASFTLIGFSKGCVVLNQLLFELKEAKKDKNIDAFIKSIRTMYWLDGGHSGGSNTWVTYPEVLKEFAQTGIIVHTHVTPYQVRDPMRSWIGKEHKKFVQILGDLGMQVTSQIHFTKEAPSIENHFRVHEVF
UniProt Q8NHZ8, whole entry: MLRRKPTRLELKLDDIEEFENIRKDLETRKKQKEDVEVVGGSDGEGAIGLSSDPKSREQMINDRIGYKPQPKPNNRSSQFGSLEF
UniProt Q8TAT5: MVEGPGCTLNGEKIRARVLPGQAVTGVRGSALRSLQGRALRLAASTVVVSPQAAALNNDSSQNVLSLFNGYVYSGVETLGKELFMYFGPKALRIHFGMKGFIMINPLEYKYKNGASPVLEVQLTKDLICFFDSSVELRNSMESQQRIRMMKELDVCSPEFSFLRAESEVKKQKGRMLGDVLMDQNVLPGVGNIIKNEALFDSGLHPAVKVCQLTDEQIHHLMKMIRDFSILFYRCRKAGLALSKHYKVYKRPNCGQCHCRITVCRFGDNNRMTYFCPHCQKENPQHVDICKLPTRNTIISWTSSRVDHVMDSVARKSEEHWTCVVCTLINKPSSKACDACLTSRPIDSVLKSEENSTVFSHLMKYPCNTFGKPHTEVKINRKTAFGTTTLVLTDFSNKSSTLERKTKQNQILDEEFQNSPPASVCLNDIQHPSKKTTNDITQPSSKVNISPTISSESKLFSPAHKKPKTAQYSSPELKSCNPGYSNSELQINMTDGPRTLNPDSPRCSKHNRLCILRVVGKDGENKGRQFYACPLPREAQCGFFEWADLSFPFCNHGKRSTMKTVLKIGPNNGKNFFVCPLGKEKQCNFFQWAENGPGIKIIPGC
UniProt Q8N7B6: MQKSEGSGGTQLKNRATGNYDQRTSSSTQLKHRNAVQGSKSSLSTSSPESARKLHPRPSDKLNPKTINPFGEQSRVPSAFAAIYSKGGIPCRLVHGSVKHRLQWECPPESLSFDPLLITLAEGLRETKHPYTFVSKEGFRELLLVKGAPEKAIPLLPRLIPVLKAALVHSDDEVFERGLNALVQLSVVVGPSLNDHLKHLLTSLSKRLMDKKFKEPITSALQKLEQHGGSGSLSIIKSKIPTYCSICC
UniProt Q8NEM2: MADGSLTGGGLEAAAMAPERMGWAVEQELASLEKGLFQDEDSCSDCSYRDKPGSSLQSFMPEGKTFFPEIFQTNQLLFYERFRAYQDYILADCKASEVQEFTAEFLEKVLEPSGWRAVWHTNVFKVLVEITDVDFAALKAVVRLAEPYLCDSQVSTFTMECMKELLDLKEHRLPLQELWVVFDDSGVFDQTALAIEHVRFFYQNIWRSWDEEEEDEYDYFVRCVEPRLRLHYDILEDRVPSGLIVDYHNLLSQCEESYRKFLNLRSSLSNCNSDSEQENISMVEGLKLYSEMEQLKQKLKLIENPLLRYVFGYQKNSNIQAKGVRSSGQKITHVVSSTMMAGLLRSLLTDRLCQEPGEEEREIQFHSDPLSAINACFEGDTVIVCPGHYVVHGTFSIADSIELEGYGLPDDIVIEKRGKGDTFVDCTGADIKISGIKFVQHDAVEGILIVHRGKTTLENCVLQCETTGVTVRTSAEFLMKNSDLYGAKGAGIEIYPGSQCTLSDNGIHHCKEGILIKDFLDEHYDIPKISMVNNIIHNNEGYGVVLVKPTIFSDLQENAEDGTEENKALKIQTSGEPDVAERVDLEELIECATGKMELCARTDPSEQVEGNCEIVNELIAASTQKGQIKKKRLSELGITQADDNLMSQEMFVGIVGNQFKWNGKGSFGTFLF
UniProt Q8NI77: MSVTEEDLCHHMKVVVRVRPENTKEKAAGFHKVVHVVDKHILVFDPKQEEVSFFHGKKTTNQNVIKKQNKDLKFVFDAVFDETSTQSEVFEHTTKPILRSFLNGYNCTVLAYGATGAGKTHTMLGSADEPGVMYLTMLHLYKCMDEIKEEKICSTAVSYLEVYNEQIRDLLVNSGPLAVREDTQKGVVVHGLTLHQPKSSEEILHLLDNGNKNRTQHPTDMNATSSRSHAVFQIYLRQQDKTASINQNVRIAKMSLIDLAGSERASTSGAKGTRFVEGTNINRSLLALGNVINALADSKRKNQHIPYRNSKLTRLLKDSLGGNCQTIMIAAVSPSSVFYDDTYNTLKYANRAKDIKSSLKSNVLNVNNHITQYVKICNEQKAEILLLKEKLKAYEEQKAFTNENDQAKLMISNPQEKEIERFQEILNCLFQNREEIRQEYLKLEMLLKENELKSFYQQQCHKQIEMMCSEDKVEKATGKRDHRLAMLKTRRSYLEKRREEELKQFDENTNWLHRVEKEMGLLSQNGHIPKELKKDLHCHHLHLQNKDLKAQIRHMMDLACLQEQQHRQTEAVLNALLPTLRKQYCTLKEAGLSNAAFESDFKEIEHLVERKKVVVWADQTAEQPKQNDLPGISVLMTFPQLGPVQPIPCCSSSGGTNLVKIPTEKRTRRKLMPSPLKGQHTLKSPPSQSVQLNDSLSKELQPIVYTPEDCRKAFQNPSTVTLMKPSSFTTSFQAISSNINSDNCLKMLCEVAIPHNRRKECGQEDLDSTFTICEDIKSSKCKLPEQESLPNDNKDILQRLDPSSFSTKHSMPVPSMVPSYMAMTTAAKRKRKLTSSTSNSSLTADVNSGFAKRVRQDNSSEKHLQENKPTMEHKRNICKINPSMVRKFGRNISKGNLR
UniProt Q8NF99: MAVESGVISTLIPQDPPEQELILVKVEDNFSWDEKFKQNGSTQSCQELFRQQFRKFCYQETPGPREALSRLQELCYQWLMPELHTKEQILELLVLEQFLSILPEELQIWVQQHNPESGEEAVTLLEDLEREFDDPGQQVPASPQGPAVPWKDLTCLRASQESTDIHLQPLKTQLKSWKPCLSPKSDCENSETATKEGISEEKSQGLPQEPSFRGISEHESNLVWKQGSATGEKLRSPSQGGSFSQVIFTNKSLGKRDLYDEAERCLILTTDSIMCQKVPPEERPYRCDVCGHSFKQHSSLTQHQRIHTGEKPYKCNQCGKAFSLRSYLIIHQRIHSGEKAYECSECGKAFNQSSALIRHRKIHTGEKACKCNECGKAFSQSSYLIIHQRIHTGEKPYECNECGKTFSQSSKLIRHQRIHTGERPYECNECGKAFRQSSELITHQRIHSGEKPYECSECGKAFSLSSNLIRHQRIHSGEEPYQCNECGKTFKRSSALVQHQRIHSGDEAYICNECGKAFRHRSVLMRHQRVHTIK

Compound in this test: CN[C@@H]1C[C@H]2O[C@@](C)([C@@H]1OC)n1c3ccccc3c3c4c(c5c6ccccc6n2c5c31)C(=O)NC4 [staurosporine]
The test is described as follows: log2 fold change of tryptic peptide abundance, ligand vs vehicle (limited proteolysis) (log2 ratio); higher = more trypsin-susceptible (destabilized). The settings on record: ligand concentration: 20 uM; sample: K562 cleared lysate; digestion: 4 min, 22 C (HT-PELSA RT4min, Orbitrap Astral).
For “PCSK9 (peptide sequence: VLNAACQR, peptide start residue: 296) (UniProt Q8NBP7)”, the log2 fold change stood at 0.233.

“UniProt Q8NHM5 (peptide sequence: ESMLIDAPR, peptide start residue: 387)”: the log2 fold change stood at 0.399.

On to “UniProt Q8NB25 (peptide sequence: LQNELDLTK, peptide start residue: 583)”, for which the log2 fold change was 0.0628.

As to “UniProt Q8N8Z8 (peptide sequence: VHTGEKPYK, peptide start residue: 783)”, the log2 fold change was -0.351.

Take “C2orf69 (peptide sequence: SLNVWNKDSIASNCR, peptide start residue: 206) (UniProt Q8N8R5)”: the log2 fold change came out at 0.197.

On to “CDC26 (peptide sequence: LDDIEEFENIRK, peptide start residue: 13) (UniProt Q8NHZ8)”, for which the log2 fold change was -0.0987.

Regarding “UniProt Q8TAT5 (peptide sequence: VDHVMDSVAR, peptide start residue: 306)”, the log2 fold change was determined as 0.698.

As to “UniProt Q8N8J7 (peptide sequence: GGDGGERDEDGDALAER, peptide start residue: 10)”, the log2 fold change was determined as 0.4.

Turning to “AKR7L (peptide sequence: SQLETSLKR, peptide start residue: 121) (UniProt Q8NHP1)”, the log2 fold change was found to be 0.26.

Take “TNRC6A (peptide sequence: IGGGWGNSDAR, peptide start residue: 1754) (UniProt Q8NDV7)”: the log2 fold change is -0.317.

On to “MOSPD2 (peptide sequence: TLIVLTNVTK, peptide start residue: 348) (UniProt Q8NHP6)”, for which the log2 fold change turned out to be 0.105.

In the case of “UniProt Q8NG31 (peptide sequence: TWVQEEEDIHKEK, peptide start residue: 1789)”, the log2 fold change was -0.283.

For the target “UniProt Q8NDA8 (peptide sequence: LAAQVLGLLLEK, peptide start residue: 1158)”, the log2 fold change is -0.717.

For the target “SLC43A3 (peptide sequence: EETPGAGQK, peptide start residue: 256) (UniProt Q8NBI5)”, the log2 fold change is -0.333.

Turning to “UniProt Q8NE22 (peptide sequence: FVPWIALNLSHNPR, peptide start residue: 20)”, the log2 fold change stood at 0.527.

Turning to “TAB3 (peptide sequence: EVDLLQSR, peptide start residue: 594) (UniProt Q8N5C8)”, the log2 fold change was -0.193.

For “ZCCHC7 (peptide sequence: KNGVIPEPSKLPYIK, peptide start residue: 403) (UniProt Q8N3Z6)”, the log2 fold change is -0.3.

For “ZNF740 (peptide sequence: NFVCEHCFGAFR, peptide start residue: 100) (UniProt Q8NDX6)”, the log2 fold change was -0.155.

With “CEP76 (peptide sequence: EILAETIR, peptide start residue: 30) (UniProt Q8TAP6)”, the log2 fold change turned out to be 0.165.

Regarding “PACRGL (peptide sequence: TINPFGEQSR, peptide start residue: 66) (UniProt Q8N7B6)”, the log2 fold change was -0.332.

Turning to “UniProt Q8N4J0 (peptide sequence: WGSAAAVSAAAAAATR, peptide start residue: 37)”, the log2 fold change is -0.0989.

Consider “SHCBP1 (peptide sequence: EGILIKDFLDEHYDIPK, peptide start residue: 512) (UniProt Q8NEM2)”, for which the log2 fold change turned out to be 0.304.

With “KIF18A (peptide sequence: TASINQNVR, peptide start residue: 242) (UniProt Q8NI77)”, the log2 fold change was -0.528.

Turning to “UniProt Q8NF99 (peptide sequence: ASQESTDIHLQPLK, peptide start residue: 158)”, the log2 fold change was 0.0988.

Regarding “GUF1 (peptide sequence: EKEITIINPAQFPDKSK, peptide start residue: 449) (UniProt Q8N442)”, the log2 fold change was determined as 0.662.

For “C12orf29 (peptide sequence: MPCVFVTEVK, peptide start residue: 11) (UniProt Q8N999)”, the log2 fold change is -0.25.

For “TNIP2 (peptide sequence: VASLLHQVSWR, peptide start residue: 331) (UniProt Q8NFZ5)”, the log2 fold change worked out at 0.38.

Take “NAV1 (peptide sequence: SLTNLSFLTDSEKK, peptide start residue: 90) (UniProt Q8NEY1)”: the log2 fold change was found to be 0.434.

In the case of “FBXO30 (peptide sequence: FCPSIQGAK, peptide start residue: 569) (UniProt Q8TB52)”, the log2 fold change was -0.165.
